Experimental data from ChEMBL document CHEMBL1949578, “Inhibitors of acetyltransferase domain of N-acetylglucosamine-1-phosphate-uridyltransferase/glucosamine-1-phosphate-acetyltransferase (GlmU). Part 1: Hit to lead evaluation of a novel arylsulfonamide series” (Bioorg Med Chem Lett, 2012).
In brackets after ≈: the same amount, converted by molar mass.

Experiment: Aqueous solubility of the compound
Details: buffer

COc1cc(OC)c(S(=O)(=O)N2c3ccccc3CC2C)cc1NC(C)=O (stereo unspecified)
solubility: 15 µM (≈ 5.86 µg/mL)
